These are yes or no findings as the source states them, for the method shown.
Target: ASF1a-NT domain (ASF1a residues 1–155) (human) (UniProt Q9Y294)
Assay: fluorescence polarisation; competition: 63 nM ASF1a 1–155 with 5 nM FITC tracer peptide and rising unlabeled peptide (15.6 nM to 256 μM for the TLK2 peptide); 50 mM Tris pH 8.0, 100 mM NaCl, 10 mM MgCl2, 1.2 mM DTT, 0.012% Brij-35, 0.2 mg/ml BSA; 295 K; both purified

Chains of the proteins cited; added tags and fusions are not shown. Residues count along the entry.
UniProt Q9Y294, residues 1-155: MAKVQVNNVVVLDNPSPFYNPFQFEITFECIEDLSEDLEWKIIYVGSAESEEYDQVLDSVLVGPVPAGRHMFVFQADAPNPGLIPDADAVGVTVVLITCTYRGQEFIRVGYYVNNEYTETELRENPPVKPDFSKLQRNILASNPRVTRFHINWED

- binding: no binding
Binder: EELHSLDPRRQELAEAAATGV [TLK2 L16A/R19A/F20A triple mutant peptide]
